## Primary screen of a compound library

Chains of the proteins cited; added tags and fusions are not shown. Residues count along the entry.
UniProt P9WNZ1, whole entry: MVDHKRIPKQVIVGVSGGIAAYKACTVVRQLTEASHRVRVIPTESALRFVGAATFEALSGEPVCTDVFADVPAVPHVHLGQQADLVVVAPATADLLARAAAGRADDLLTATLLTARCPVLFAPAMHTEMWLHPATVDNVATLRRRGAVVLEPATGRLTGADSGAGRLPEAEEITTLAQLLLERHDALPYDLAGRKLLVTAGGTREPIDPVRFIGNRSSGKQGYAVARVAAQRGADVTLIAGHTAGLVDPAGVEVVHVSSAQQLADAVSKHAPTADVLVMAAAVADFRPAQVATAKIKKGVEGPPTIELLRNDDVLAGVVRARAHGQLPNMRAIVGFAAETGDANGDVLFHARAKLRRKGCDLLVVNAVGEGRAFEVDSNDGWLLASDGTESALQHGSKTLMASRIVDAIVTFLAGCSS
UniProt I6X8D2, whole entry: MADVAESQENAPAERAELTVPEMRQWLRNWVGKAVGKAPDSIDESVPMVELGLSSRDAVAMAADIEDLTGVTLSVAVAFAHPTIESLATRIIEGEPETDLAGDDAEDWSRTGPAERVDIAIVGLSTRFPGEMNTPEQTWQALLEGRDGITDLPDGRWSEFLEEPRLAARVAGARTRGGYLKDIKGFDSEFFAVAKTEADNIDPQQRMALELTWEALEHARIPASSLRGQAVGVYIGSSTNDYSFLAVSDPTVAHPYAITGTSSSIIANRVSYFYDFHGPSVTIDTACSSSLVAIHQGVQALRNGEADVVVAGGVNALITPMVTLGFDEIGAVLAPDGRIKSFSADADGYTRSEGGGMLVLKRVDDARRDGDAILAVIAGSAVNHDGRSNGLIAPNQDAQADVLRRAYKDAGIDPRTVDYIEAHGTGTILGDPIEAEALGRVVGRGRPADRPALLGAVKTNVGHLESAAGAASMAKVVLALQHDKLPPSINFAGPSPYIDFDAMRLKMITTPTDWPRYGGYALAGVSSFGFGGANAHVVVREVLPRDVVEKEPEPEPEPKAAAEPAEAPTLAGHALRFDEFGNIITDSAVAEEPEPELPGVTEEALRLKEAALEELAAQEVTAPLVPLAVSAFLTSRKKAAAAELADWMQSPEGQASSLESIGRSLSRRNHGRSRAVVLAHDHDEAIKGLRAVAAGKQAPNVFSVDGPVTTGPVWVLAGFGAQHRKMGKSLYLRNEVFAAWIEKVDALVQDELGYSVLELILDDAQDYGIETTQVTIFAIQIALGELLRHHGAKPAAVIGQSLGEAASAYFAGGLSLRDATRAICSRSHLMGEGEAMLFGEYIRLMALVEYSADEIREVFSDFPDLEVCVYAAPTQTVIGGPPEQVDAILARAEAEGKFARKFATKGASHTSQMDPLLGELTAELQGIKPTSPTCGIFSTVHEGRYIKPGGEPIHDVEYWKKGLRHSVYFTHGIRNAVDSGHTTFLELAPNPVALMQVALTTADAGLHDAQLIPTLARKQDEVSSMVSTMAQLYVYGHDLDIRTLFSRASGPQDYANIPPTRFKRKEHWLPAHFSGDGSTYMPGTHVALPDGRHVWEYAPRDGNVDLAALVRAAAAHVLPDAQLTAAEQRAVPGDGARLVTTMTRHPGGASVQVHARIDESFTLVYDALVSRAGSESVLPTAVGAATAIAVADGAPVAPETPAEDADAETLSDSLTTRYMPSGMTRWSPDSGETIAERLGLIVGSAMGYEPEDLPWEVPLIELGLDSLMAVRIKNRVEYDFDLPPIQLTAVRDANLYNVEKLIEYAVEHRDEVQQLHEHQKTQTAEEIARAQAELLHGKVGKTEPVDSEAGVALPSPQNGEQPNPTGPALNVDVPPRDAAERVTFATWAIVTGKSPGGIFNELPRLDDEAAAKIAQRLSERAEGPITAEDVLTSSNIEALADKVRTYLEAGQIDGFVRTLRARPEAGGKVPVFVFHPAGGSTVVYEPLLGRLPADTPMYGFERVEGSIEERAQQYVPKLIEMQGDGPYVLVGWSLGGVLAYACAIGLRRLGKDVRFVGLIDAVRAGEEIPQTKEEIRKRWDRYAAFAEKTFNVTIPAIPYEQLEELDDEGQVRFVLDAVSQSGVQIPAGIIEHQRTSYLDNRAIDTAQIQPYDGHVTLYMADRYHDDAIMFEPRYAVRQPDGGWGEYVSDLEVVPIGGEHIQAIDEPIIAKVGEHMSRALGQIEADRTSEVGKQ
UniProt P9WPC5, whole entry: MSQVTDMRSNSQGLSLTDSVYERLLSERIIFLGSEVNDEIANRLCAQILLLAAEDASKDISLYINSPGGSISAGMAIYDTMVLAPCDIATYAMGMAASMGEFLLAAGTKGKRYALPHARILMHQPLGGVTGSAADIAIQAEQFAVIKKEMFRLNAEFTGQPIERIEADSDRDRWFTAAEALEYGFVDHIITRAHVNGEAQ
UniProt P9WPC3, whole entry partner: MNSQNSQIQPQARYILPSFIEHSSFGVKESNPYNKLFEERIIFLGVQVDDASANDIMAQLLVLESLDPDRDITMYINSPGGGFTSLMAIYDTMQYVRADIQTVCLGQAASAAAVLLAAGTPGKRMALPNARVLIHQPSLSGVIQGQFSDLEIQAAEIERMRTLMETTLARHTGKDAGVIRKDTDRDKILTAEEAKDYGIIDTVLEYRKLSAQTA
UniProt A4I591, 1-473: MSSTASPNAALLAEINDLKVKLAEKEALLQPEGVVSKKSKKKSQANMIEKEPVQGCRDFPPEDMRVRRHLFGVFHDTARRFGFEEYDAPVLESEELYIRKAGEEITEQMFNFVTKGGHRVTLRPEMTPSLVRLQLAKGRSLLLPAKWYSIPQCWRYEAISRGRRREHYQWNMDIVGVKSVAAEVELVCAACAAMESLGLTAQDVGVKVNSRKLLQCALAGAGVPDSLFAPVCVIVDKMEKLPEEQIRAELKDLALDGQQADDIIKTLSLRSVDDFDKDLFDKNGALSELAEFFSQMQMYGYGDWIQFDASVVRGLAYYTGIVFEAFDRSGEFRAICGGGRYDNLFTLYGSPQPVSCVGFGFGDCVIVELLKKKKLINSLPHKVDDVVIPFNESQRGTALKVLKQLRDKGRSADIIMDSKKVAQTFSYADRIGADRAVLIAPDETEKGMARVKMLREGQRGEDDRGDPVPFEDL
UniProt P9WFT3, whole entry: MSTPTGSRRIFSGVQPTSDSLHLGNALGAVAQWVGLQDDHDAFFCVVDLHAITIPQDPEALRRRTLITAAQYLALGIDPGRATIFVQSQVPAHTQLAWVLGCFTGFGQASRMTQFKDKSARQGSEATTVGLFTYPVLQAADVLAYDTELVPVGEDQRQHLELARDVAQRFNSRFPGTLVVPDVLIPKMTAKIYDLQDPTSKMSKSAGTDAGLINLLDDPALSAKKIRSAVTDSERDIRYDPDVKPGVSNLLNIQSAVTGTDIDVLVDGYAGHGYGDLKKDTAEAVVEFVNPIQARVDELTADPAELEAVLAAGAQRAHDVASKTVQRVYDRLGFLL

CoaBC: 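Coenzyme A biosynthesis protein CoaBC, Mycobacterium tuberculosis (UniProt P9WNZ1). Enzyme assay of CoaBC with a phosphate dye (Biomol Green) read at 650 nm. Compounds at 30 µM. Direction is inferred from only a few compounds that gave an IC50; most scored high, so higher reads as stronger inhibition. Most strong results did not repeat in a second test. Of about 67,000 compounds tested this way, about 40 (0.06%) reached 50% or more in at least one test.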
Pks13 thioesterase: 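Enzyme assay of the thioesterase domain of polyketide synthase 13; the read-out is not stated. Target: Polyketide synthase Pks13, Mycobacterium tuberculosis (UniProt I6X8D2). Concentration: 30 µM. The record gives no direction; the compounds picked for IC50 retests had high values, so higher reads as stronger inhibition. Of about 67,000 compounds tested this way, about 300 (0.46%) reached 50% or more in at least one test.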
ClpP1P2: 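ClpP1P2, Mycobacterium tuberculosis (UniProt P9WPC5 and UniProt P9WPC3). Protease assay of ClpP1P2, read by the AMC dye that it sets free. Concentration: 50 µM. Direction is inferred from only a few compounds that gave an IC50; most scored high, so higher reads as stronger inhibition. Most other retested compounds had strongly negative values. Size under these conditions: about 69,000 compounds, about 10 of them at 50% or above in at least one test.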
Toxoplasma: 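Assay of Toxoplasma gondii numbers, read through their beta-galactosidase reporter with a colour substrate. Concentration: 10 µM. The record gives no direction; the compounds picked for IC50 retests had high values, so higher reads as fewer parasites. Of about 67,000 compounds tested this way, about 260 (0.38%) reached 50% or more in at least one test.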
LiHisRS: 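Histidine-tRNA ligase, Leishmania infantum (UniProt A4I591). Enzyme assay of histidyl-tRNA synthetase; the read-out is not stated. Compounds at 30 µM. Higher reads as stronger inhibition (inferred: compounds with an IC50 in retests scored well above the rest). The assay is labelled LdHisRS but filed under L. infantum. Size under these conditions: about 69,000 compounds, about 410 of them at 50% or above in at least one test.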
MtTrpRS: 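Tryptophan-tRNA ligase, Mycobacterium tuberculosis (UniProt P9WFT3). Enzyme assay of tryptophanyl-tRNA synthetase; the read-out is not stated. Concentration: 10 µM. Direction is not recorded; retested compounds ran higher, which suggests that high means inhibition. Of about 65,000 compounds tested this way, about 64 (0.098%) reached 50% or more in at least one test.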

The filed quantity is “Percent Effect” (%). The controls that fix the scale are not given in the record; negative values are as filed. This is an unselected part of the compounds tested. A dash means the value is not listed here; it may have been measured.

| # | structure | CoaBC | Pks13 thioesterase | ClpP1P2 | Toxoplasma | LiHisRS | MtTrpRS |
|---|---|---|---|---|---|---|---|
| 1 | `O=C(O)c1c(-c2cncnc2)ncc2c1CCN(Cc1ccco1)C2` | 0.2439 | 16.6 | 19.51 | - | 37.74 | - |
| 2 | `CC(=O)NC(Cc1c[nH]c2cc(F)ccc12)C(=O)Nc1cnn(C)c1` (configuration not stated) | - | -17.72 | 2.383 | -1.942 | 29.58 | 0.7064 |
| 3 | `c1csc(CN2CCC3(CC2)CCN(CC2CC2)CC3)n1` | 10.04 | -16.38 | 10.41 | - | 26 | 20.68 |
| 4 | `CC(=O)Nc1nc(C(=O)N2CCCCC2Cn2cc(C)cn2)cs1` (configuration not stated) | -1.305 | -16.42 | -31.44 | -17.15 | 7.965 | -4.514 |
| 5 | `COc1ccc2nnc(CCC(=O)Nc3nc4c(s3)CCCCC4)n2n1` | 1.687 | -2.207 | 11.89 | -19.14 | 25.27 | -0.06473 |
| 6 | `CCOc1ccc(NC(=O)N2CCOC(C(N)=O)C2)cc1C` (configuration not stated) | 8.239 | 7.074 | 1.601 | 6.091 | 5.319 | -0.4122 |
| 7 | `COCC1CC2(CCN(c3cccc(C)n3)CC2)CN1C(C)C` (configuration not stated) | 5.322 | -7.469 | -5.872 | - | 11.88 | - |
| 8 | `CNCC(=O)N1CCCC(c2nccnc2Oc2cccc(F)c2)C1.Cl` (configuration not stated) | - | - | - | 3.605 | - | - |
| 9 | `Cc1ccc(NC2(C(=O)NCCCN)CCCC2)cc1` | -2.355 | -34.45 | -1.779 | -14.35 | 11.67 | -5.178 |
| 10 | `Cc1ccc(NCc2cn3c(n2)CN(Cc2ccc(C)o2)CC3)nn1` | -14.55 | 10.73 | 6.145 | - | 38 | -6.953 |
| 11 | `CC(C)N1CCC(C(=O)N2CCC(C(O)c3nccn3C)CC2)CC1` (configuration not stated) | 3.951 | -17.36 | -0.4454 | -23.8 | 19.58 | -12.22 |
| 12 | `CN(C)C1COC2(CCN(S(=O)(=O)c3ccc(F)cc3)CC2)C1` (configuration not stated) | 1.724 | -6.55 | -2.532 | - | 12 | -9.24 |
| 13 | `N#Cc1ccc(CN2C[C@@H](F)[C@@H](OCc3nc4cnccc4[nH]3)C2)cc1` | 11.98 | 9.515 | -12.74 | 8.057 | 13.51 | 1.297 |
| 14 | `Cc1occc1C(=O)N1CCCN(Cc2nccn2C)CC1` | 7.535 | 5.069 | -27.28 | -12.74 | 11.61 | -4.035 |
| 15 | `Oc1cccc(CNC2CCN(CCc3ccncc3)CC2)c1` | -21.98 | -9.938 | -1.929 | -4.099 | 6.061 | 1.009 |
| 16 | `Cn1ccc(CN2CCCN(c3nccs3)CC2)cc1=O` | 10 | -36.26 | -0.2973 | 2.934 | 10.99 | -3.372 |
| 17 | `O=C(O)c1ccc(CNC(=O)C2CCN(C(=O)C3CCC3)CC2)s1` | -8.014 | -9.088 | -0.4051 | 8.18 | 9.836 | -1.708 |
| 18 | `Fc1cccc(-c2nc(CN3CCOC(Cn4cccn4)C3)co2)c1` (configuration not stated) | 3.44 | -10.75 | 4.944 | 3.733 | 9.524 | 0.2347 |
| 19 | `COc1cccc(CNCc2nc3ccccc3c(=O)[nH]2)c1` | 8.392 | 3.55 | -34.14 | 6.266 | 0 | 0.3903 |
| 20 | `COCCN(Cc1ccc(F)cc1Cl)C(=O)c1cc(C)no1` | 0.3205 | - | -7.436 | -1.643 | 6.849 | -3.792 |
| 21 | `Cc1[nH]nc2ncc(C(=O)N3CCN(CC(C)(C)O)CC3)cc12` | 7.229 | -24.72 | -10.79 | -6.671 | 10.45 | -0.273 |
| 22 | `[H][C@]12CCN(S(=O)(=O)c3ccc(OC)cc3)[C@@]1([H])CC[C@@H](COC)O2` | - | - | - | -8.429 | - | - |
| 23 | `CC(C)(C)OC(=O)N1CC(=O)N(CCc2ccccc2)CC(O)C1` (configuration not stated) | 0.7264 | -4.273 | 25.52 | -2.533 | 8.163 | - |
| 24 | `CCOc1ccc(C(=O)NCc2ccnc(N3CCN(C)CC3)c2)cn1` | -11.39 | -21.79 | 0.6674 | 1.654 | -1.299 | -1.48 |
| 25 | `Cc1nn(C)c(C)c1NC(=O)CN1CCCC1c1c(C)nn(C)c1C` (configuration not stated) | 6.17 | -11.51 | -27.32 | 2.547 | 4.386 | 0.000006 |
| 26 | `CSc1ncccc1C(=O)NCc1ccc(CS(=O)(=O)NC(C)C)cc1` | 7.572 | 0.233 | 10.55 | -1.969 | 13.51 | -7.115 |
| 27 | `CC(C)c1nc2n(n1)CC(NCc1nnnn1C1CC1)CC2` (configuration not stated) | 7.236 | - | 16.12 | 2.814 | 33.33 | -0.3912 |
| 28 | `CN1CCC(CN2CCC3(CCCN(Cc4ccoc4)C3)C2=O)CC1` (configuration not stated) | 2.824 | -30.2 | 13.29 | - | 26.61 | -0.995 |

For reference, 2 entries once more:

* Oc1cccc(CNC2CCN(CCc3ccncc3)CC2)c1 : CoaBC: -21.98%; Pks13 thioesterase: -9.938%; ClpP1P2: -1.929%; Toxoplasma: -4.099%; LiHisRS: 6.061%; MtTrpRS: 1.009%
* Cc1ccc(NC2(C(=O)NCCCN)CCCC2)cc1 : CoaBC: -2.355%; Pks13 thioesterase: -34.45%; ClpP1P2: -1.779%; Toxoplasma: -14.35%; LiHisRS: 11.67%; MtTrpRS: -5.178%

The values are deposited in ChEMBL (CHEMBL3988442, “University of Dundee, Small-Polar-MMV Screening Library” (2021)).